For at least one compound, name, drawing or mass did not settle the structure. Where a SMILES comes first, the peptide text is derived from it.
Assays:
NG108-15 cells [1] = assay: Determination of the intracellular Ca2+ concentration (fura2-AM fluorescence ratio); assay type: cell-based; settings: FIG. 3
From the text: The present invention will be explained more specifically by referring to the following examples. However, the scope of the present invention is not limited to these examples. The test procedure in the examples was according to the method of Hare et al. (Hare, M. F., et. al., JPET, 266, pp.1626-1635, 1993) unless otherwise indicated. In the examples, “Nefiracetam” means 2-oxo-1-pyrrolidinylacetic acid 2,6-dimethylanilide, and “Ro5-4864” means the mitochondrias benzodiazepine receptor agonist, (7-chloro-5-(4-chlorophenyl)-1,3-dihydro-1-methyl-2H-1,4-benzodiazepin-2-one: TIPS, December, pp. 506-511, 1986).
Changes in the intracellular Ca^2+ concentration caused by Ro5-4864 was studied. […]
For the determination of intracellular Ca^2+ concentrations, the culture medium was removed from the Petri dish where the NG108-15 cells were cultured, and the dish was washed twice with HBS. […] Finally, 1 ml of HBS was added to the Flexiperm, and the intracellular Ca^2+ concentration was measured by ARGUS-50/CA (Hamamatsu Photonics). […] An increase in the 340 nm excited fluorescence due to the binding of intracellular calcium ions to the fura2-AM, and a decrease in the 380 nm excited fluorescence were recorded by imaging and the ratio of fluorescence intensity between the fluorescence images was obtained.

NG108-15 cells [2] = assay: Determination of the mitochondrial membrane potential (Rhodamine 123 fluorescence); assay type: cell-based; settings: caffeine 10 μM and bradykinin 1 μM applied; FIG. 4

Compound: NC(N)=NCCC[C@H](NC(=O)[C@H](Cc1ccccc1)NC(=O)[C@@H]1CCCN1C(=O)[C@H](CO)NC(=O)[C@H](Cc1ccccc1)NC(=O)CNC(=O)[C@@H]1CCCN1C(=O)[C@@H]1CCCN1C(=O)[C@@H](N)CCCN=C(N)N)C(=O)O [bradykinin] (H-RPPGFSPFR-OH)
- change in intracellular Ca2+ concentration (NG108-15 cells [1]; BK applied again after caffeine 10 μM): not increased
- change in intracellular Ca2+ concentration (NG108-15 cells [1]; bradykinin 1 μM, first application): remarkable increase
- change in mitochondrial membrane potential (NG108-15 cells [2]): no alteration

Source: patent US6417220B2, “Mitochondrial membrane stabilizer” (Daiichi Pharmaceutical Co., Ltd., priority 1996, dated 2002)
